The exact form of at least one protein or probe is not confirmed. Where cells or extracts were used, other partners may take part. For some assays here: A weaker result is weaker than the reference pair of the same experiment. Tags and fusion partners may be left off the protein sequences shown. For some assays here: The direction of at least one scale is not stated here.

Data set [1] has as its target T1, C/EBPδ (UniProt Q03484).
T1 sequence (looked up, limits assumed): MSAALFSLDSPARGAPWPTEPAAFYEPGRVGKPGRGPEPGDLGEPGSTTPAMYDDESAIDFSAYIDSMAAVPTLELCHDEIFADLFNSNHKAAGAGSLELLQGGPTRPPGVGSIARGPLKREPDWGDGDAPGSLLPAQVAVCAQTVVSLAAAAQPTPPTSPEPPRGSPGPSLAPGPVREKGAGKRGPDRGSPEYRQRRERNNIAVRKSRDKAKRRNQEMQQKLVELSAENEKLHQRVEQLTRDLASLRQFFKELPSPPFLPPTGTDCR
Description: streptavidin-agarose pull-down, western blot (nuclear extract). As to conditions: pull-down: 150 μg nuclear extract, 4 μg dsDNA, 500 μl PBS, 1 mM EDTA, 1 mM DTT, protease inhibitors, 2 h at room temperature, protein in an extract. A general note: In western blotting, separated proteins are transferred to a membrane and probed.

In data set [2] the target is T1, C/EBPδ. Description: EMSA with anti-C/EBPδ (nuclear extract). Conditions: EMSA: 5 μg nuclear extract, antibody 30 min at room temperature before probe, 5% polyacrylamide gel, buffer not given, protein in an extract, label: 32P (T4 PNK). (In general: A gel shift assay detects complexes by their altered migration in electrophoresis.)

Take “AGTTGAGGGGACTTTCCCAGGC (double strand) [κB oligonucleotide]”: the binding result is “binds” in data set [1] (extract of IL-1β-treated cells, binding increased vs untreated); “binds more weakly” in data set [1] (extract of cells treated with IL-1β + fibril-enriched Aβ, IL-1β-induced binding completely blocked); “binds more weakly” in data set [1] (extract of cells treated with IL-1β + oligomer-enriched Aβ, decreased to same extent as with fibrils).

For “TGCAGATTGCGCAATCTGCA (double strand) [C/EBP consensus oligonucleotide]”, the binding result in data set [2] (extract of IL-1β-treated cells (10 ng/ml, 3 h)) is recorded as “binds”. Also, the binding signal (% decrease vs IL-1β alone) in data set [2] (extract of cells treated with IL-1β + fibril-enriched Aβ (10 μM), reflects lower C/EBPδ protein level) amounted to 89.

The values above are taken from paper PMC3096570.
